## Primary screen of a compound library

The chains behind the UniProt entries cited, without tags or fusion partners.
UniProt E9BF75, entry or part of it: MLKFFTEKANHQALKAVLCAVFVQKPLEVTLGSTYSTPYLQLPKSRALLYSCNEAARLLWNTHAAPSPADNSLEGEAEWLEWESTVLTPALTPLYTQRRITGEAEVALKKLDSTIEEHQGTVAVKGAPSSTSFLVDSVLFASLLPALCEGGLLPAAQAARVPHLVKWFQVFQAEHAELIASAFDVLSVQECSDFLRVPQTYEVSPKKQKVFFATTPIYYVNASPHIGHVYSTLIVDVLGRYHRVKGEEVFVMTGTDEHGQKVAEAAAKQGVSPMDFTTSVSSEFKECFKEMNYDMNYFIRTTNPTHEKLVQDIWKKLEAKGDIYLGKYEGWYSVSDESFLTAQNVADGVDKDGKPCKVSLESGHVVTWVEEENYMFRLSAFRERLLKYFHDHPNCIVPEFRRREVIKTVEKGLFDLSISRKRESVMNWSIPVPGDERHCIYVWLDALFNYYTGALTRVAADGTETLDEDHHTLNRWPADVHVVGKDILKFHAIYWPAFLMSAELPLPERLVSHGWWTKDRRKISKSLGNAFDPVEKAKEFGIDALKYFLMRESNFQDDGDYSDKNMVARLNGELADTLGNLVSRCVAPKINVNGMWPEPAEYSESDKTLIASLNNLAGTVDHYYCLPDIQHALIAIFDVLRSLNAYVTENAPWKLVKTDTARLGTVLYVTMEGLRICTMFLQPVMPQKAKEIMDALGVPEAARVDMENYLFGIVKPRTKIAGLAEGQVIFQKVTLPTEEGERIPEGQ

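Primary screen of methionyl-tRNA synthetase; the read-out is not stated. Target: Methionyl-tRNA synthetase (putative), Leishmania donovani (UniProt E9BF75). The test concentration is not given. Values are per cent inhibition. About 68,000 compounds were tested under these conditions; 0.035% (about 24) showed 50% or more at least once.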

All values are in %.
The controls that fix the scale are not given in the record; negative values are as filed.
The compounds are a random part of those screened.

| Compound | inhibition |
|---|---|
| `CCN(C)c1ncnc2c1CCN(C(=O)c1cnccn1)CC2` | -1.075% |
| `CNS(=O)(=O)Cc1cccc(CNC(=O)Nc2cn[nH]c2)c1` | 21.79% |
| `CNS(=O)(=O)CC1CCCN1c1ccc(Cl)cn1` (stereo not given) | 12.33% |
| `O=C(NCC(=O)N1CCCc2ccccc21)c1c(O)cc(F)cc1F` | 9.392% |
| `CN1CCN(Cc2ccc(-c3ccc(C(N)=O)cc3)nc2)CC1` | 10.7% |
| `Cc1cccc(CS(=O)(=O)NCC(O)Cc2ccccc2)c1` (stereo not given) | 12.32% |
| `c1csc(N2CCCN(Cc3nc(C4CC4)no3)CC2)n1` | 15.79% |
| `Cc1nc(C(C)C)sc1C(=O)N1CCN(C2CN3CCC2CC3)CC1` (stereo not given) | 16.51% |
| `O=C(c1ccoc1)N1CCC2(C1)CN(c1nccs1)C2` | 17.78% |
| `CS(=O)(=O)NCCC1CCCCN1C(=O)NCc1ccccn1` (stereo not given) | 8.629% |
| `COCCn1ccc(NC(=O)CNC(=O)CC(C)(C)C)n1` | 8.499% |
| `CCOCC(=O)N1C[C@@H](NC(C)=O)[C@H](c2ccc(OC)cc2)C1` | 15.61% |
| `O=C(CN1C(=O)CCC1=O)N1CCC(CSCc2ccco2)CC1` | 13.77% |
| `COc1ccc(Cc2nc3c([nH]2)CC(C)(C)CNC3=O)c(OC)c1` | 5.602% |
| `c1cc(CN2CCCC3(CCN(CC4CCCO4)CC3)C2)n[nH]1` (stereo not given) | 5.865% |
| `CC(C)NC(=O)NCCn1nc(C(F)(F)F)n(C)c1=O` | 13.64% |
| `Cc1ccnc(NCCNC(=O)CCNC(=O)c2ccccc2F)c1` | 34.78% |
| `Cc1nc(-c2ccc(S(=O)(=O)N3CCCCC3)cc2)co1` | 16.28% |
| `CC(C)Oc1ncccc1CNC(=O)N1CCC(n2cccc2)CC1` | 13.97% |
| `CC(C)NC(=O)N1CCC2(CC(=O)N(c3cccc(C#N)c3)C2)C1` (stereo not given) | 7.296% |
| `N#Cc1ccc(N2CCC(NS(=O)(=O)c3cccs3)CC2)c(F)c1` | 6.213% |
| `CCC(=O)N1CCN(C(=O)c2ccc(OC)o2)[C@H]2CS(=O)(=O)C[C@H]21` | 14.29% |
| `Cc1cc(CNc2cccc(C(=O)N(C)c3ccccc3)c2)no1` | 10.87% |
| `CC1(C)CC(=O)N(CC(=O)Nc2ccon2)c2ccccc21` | 20.43% |
| `O=C(CNC1CCc2ncnn2C1)N(C1=CCCCC1)C1CC1` (stereo not given) | 17.29% |
| `Cc1cccc(NC(=O)NCC2(N3CCOCC3)CCSC2)c1` (stereo not given) | 0.5435% |
| `O=C(c1ccc(N2CCOCC2)nc1)N1CCCC(n2ccnc2)C1` (stereo not given) | 15.79% |
| `NC(=O)C1CCN(CCc2ccc(NC(=O)C3CC3)cc2)CC1` | 13.65% |
| `Cc1ccc(-c2nc(CNC(C)Cn3cccn3)cs2)o1` (stereo not given) | 26.82% |
| `CCc1nc(C)c(C(=O)N2CCCC(c3noc(C)n3)C2)s1` (stereo not given) | 5.978% |
| `COCC(=O)Nc1cc(Br)cnc1OCC(F)(F)F` | 16.3% |
| `Cc1nc(N2CCN(S(C)(=O)=O)CC2)cc(-n2cnc(C)c2C)n1` | 3.546% |
| `O=C(Cc1ccsc1)N1CCCCC1c1ccn2ccnc2n1` (stereo not given) | 3.955% |
| `CCn1c(CN(C)C)nnc1C1CCN(Cc2ccc(Cl)c(F)c2)CC1` | 17.39% |
| `COc1ccc(C(C)N2CCC(OC)CC2)cc1Cl` (stereo not given) | 8.992% |
| `CC(C)c1ccc(-c2nnn(CCNS(C)(=O)=O)n2)cc1` | 15.5% |
| `Cc1ccc(CS(=O)(=O)CC(=O)NCc2ccccc2F)cc1` | 9.51% |
| `CSCCC(C)NC(=O)N1CCSC(C)(C)C1` (stereo not given) | 9.669% |
| `CC(C)c1nc(CNc2ccc(CNS(C)(=O)=O)cc2)cs1` | 15.32% |
| `CN(C)CC(=O)N1CCC2(CCN(Cc3cccc(F)c3)CC2)C1` | 20.73% |
| `CC(C)(C)CN(CCC#N)C(=O)c1cccc(CN2CCCC2)c1` | 10.36% |
| `CCN1CCN(Cc2c(-c3ccco3)[nH]c3ncccc23)CC1` | 9.176% |
| `N#Cc1ccccc1CN(CCO)Cc1ccsc1` | 10.5% |
| `Cc1ccccc1-n1cc(C2=CCN(CCn3cc[nH]c3=O)CC2)cn1` | 4.469% |
| `O[C@@H]1C[C@@H](c2nc(Cc3ccccc3)no2)N(CC2CC2)C1` | 7.143% |
| `NC(=O)CN1CC2(CCC1=O)CCN(Cc1ccccc1F)CC2` | 6.145% |
| `Cc1nnn2c1COC(CNCc1ccncc1)C2` (stereo not given) | 11.42% |
| `CC(Cn1cccn1)NC(=O)NCCc1ccsc1` (stereo not given) | 11.73% |
| `CN(C)C(CNC(=O)NCc1cc[nH]n1)c1ccco1` (stereo not given) | 7.117% |
| `CC(C)C(NC(=O)c1cnc(N2CCOCC2)nc1)c1cccs1` (stereo not given) | 15.96% |
| `CCc1nccn1CCC(=O)N1CCCC1c1cncc(NC)n1` (stereo not given) | 8.1% |
| `CN(Cc1ccco1)Cc1ccccc1CNC(=O)c1cnccn1` | 10.87% |
| `Cc1ccc2c(c1)C(=O)CC1(CCN(Cc3ccccc3)CC1)O2` | 10.83% |
| `Cc1nnsc1CNC(=O)c1ccc2c(c1)nc(N1CCOCC1)n2C` | 16.71% |
| `Cc1nc(CN2CCCC(NCCCOc3ccc(F)cc3)C2)no1` (stereo not given) | 17.75% |
| `CC(=O)Nc1nc(CNc2ccccc2CCC(F)(F)F)cs1` | 9.84% |
| `CS(=O)(=O)N1CCC2(CCCN(c3ncc(F)cn3)C2)C1` (stereo not given) | 14.79% |
| `CCOCCNC(=O)Cc1cccc(I)c1` | 12.57% |
| `CCn1ccnc1CN1CCCC(CO)(Cc2cccc(Cl)c2)C1` (stereo not given) | 15.24% |
| `CN(CCc1cn[nH]c1)C(=O)C(c1ccc(F)cc1)N(C)C` (stereo not given) | 9.971% |
| `c1cc(CN2CCOCC3(CCN(C4CCOCC4)C3)C2)ccn1` (stereo not given) | -4.575% |
| `C=C(C)COc1cccc(CNCCc2c[nH]cn2)c1` | 15.65% |
| `COc1ccccc1CC(=O)N1CCC(NCc2c[nH]nc2C)CC1` | 10.48% |
| `CCC(C(=O)N1CCCSCC1)N1CCCC1=O` (stereo not given) | 3.631% |

5 of the entries, repeated:

With c1cc(CN2CCCC3(CCN(CC4CCCO4)CC3)C2)n[nH]1 (stereo not given) the screen gave 5.865%.
With CN(C)CC(=O)N1CCC2(CCN(Cc3cccc(F)c3)CC2)C1 the screen gave 20.73%.
With CNS(=O)(=O)Cc1cccc(CNC(=O)Nc2cn[nH]c2)c1 the screen gave 21.79%.
With CC(Cn1cccn1)NC(=O)NCCc1ccsc1 (stereo not given) the screen gave 11.73%.
With N#Cc1ccc(N2CCC(NS(=O)(=O)c3cccs3)CC2)c(F)c1 the screen gave 6.213%.

Measurements from “University of Dundee, Small-Polar-MMV Screening Library” (2021), ChEMBL document CHEMBL3988442.